Assay results published in patent EP3791713A1.
No constants are given. Whether binding was seen depends on the method and setting. Some results given as binding are weak or reduced against the parent protein; the word gives no strength.

T1: Mp10 (SEQ ID NO:4), factor of Myzus persicae, a member of the OS-D superfamily (Myzus persicae)
T1 sequence: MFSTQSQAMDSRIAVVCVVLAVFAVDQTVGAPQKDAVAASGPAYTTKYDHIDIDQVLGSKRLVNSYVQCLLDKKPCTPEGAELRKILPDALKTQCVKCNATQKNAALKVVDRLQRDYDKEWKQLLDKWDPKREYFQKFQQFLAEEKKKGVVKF


Target: T1, Mp10 (SEQ ID NO:4), factor of Myzus persicae, a member of the OS-D superfamily (Myzus persicae)
Experiment: yeast two-hybrid

| Binder | binding |
| --- | --- |
| BvAMSH2 protein (SEQ ID NO:2), Beta vulgaris AMSH2, wild type (protein) MVTHYPSAPISCTEVPPNAGQVSQVTAADSRYAYSDSAIHVLKNVHISAQLTDDFLELARNNTNNDLETCGVLGASLKEETFYATTLIIPKQKSTSSSCQALREEEIFNIQNDRSLFPVGWIHTHPSQSCFMSSIDLHTQYPYQVMVPEAIAIVVAPTDKTRNYGIFRLTDPSGMNVVKECEENGFHPHRDSTDGRPLYEQCSHVYINPNLRFEIFDLR | binds |
| Beta vulgaris AMSH2 V72I mutant (protein) MVTHYPSAPISCTEVPPNAGQVSQVTAADSRYAYSDSAIHVLKNVHISAQLTDDFLELARNNTNNDLETCGILGASLKEETFYATTLIIPKQKSTSSSCQALREEEIFNIQNDRSLFPVGWIHTHPSQSCFMSSIDLHTQYPYQVMVPEAIAIVVAPTDKTRNYGIFRLTDPSGMNVVKECEENGFHPHRDSTDGRPLYEQCSHVYINPNLRFEIFDLR | binds |
